# According to patent publication US20210071191:
# Molecular target: T1, Flag-OsGRF4 (ngr2) (Oryza sativa) (UniProt Q6ZIK5)
# T1 sequence (limits assumed): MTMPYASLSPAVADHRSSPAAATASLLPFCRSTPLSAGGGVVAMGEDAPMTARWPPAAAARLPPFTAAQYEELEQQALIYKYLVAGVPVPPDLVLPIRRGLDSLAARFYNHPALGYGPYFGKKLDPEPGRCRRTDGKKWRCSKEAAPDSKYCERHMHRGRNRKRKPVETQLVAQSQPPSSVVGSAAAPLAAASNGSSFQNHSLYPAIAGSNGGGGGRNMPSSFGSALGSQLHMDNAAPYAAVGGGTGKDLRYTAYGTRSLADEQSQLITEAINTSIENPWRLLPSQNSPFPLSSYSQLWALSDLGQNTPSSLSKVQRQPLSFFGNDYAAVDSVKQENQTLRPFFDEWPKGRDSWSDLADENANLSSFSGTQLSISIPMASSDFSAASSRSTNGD
# Assay: binding assay
# Details: ChIP-seq, most abundant enriched motif; protein in cells; protein details: Flag, p35S::flag-OsGRF4ngr2 transgenic rice
sequence,measurement,value
GGCGGCGGCGGC (double strand) [ChIP-seq enriched motif],binding result,binds

# For at least one entry, the source does not settle the construct or the ends of the probe. At least one result comes from cells or an extract, where the contact may be indirect. Protein sequences can lack the tags named with them.
